For three molecules, binding results are on record in paper PMC13043047.

Results are given in words; binding and its absence hold for the method and conditions named. Binding seen in cells or lysates may run through a third protein. Here binding means that the protein was enriched with, or labelled near, the bait; the list need not be complete.

For the assay, the target named is LAP-tagged VP7 of human rotavirus DS1 strain (G2P[4]) (human rotavirus DS1 strain (G2P[4])). Kind of assay: affinity purification with mass spectrometry; tandem affinity purification from lysate of stable LAP-tagged DS-1 VP7 cells: anti-GFP immunoprecipitation, elution by TEV protease cleavage, recapture on S-protein agarose, gel slices, LC-MS/MS.

B1: signal peptidase complex subunit 3 (protein, UniProt P61009 1-180)
chain: MNTVLSRANSLFAFSLSVMAALTFGCFITTAFKDRSVPVRLHVSRIMLKNVEDFTGPRERSDLGFITFDITADLENIFDWNVKQLFLYLSAEYSTKNNALNQVVLWDKIVLRGDNPKLLLKDMKTKYFFFDDGNGLKGNRNVTLTLSWNVVPNAGILPLVTGSGHVSVPFPDTYEITKSY
On to B1, for which the binding entry is listed as “binds”.

B2: signal peptidase complex catalytic subunit SEC11C (protein, UniProt Q9BY50 1-192)
chain: MVRAGAVGAHLPASGLDIFGDLKKMNKRQLYYQVLNFAMIVSSALMIWKGLIVLTGSESPIVVVLSGSMEPAFHRGDLLFLTNFREDPIRAGEIVVFKVEGRDIPIVHRVIKVHEKDNGDIKFLTKGDNNEVDDRGLYKEGQNWLEKKDVVGRARGFLPYVGMVTIIMNDYPKFKYALLAVMGAYVLLKRES
Regarding B2, the binding result is reported as “binds”.

B3: signal peptidase complex subunit 1 (protein, UniProt Q9Y6A9 1-169)
chain: MARGGDTGCTGPSETSASGAAAIALPGLEGPATDAQCQTLPLTVLKSRSPSPRSLPPALSCPPPQPAMLEHLSSLPTQMDYKGQKLAEQMFQGIILFSAIVGFIYGYVAEQFGWTVYIVMAGFAFSCLLTLPPWPIYRRHPLKWLPVQESSTDDKKPGERKIKRHAKNN
For the molecule B3, the binding result is recorded as “binds”.
